Values quoted from earlier work as cited in article PMC11070850.

Test system: mucin 1
Assay: DNA nanospheres of Y1/Y2/Y3 as competing partner
Conditions: 10 mM MOPS, 100 mM NaNO3, pH 7.6, room temperature, 60 min (aptamer + mucin 1 + DNA nanospheres); then CuSO4 50 min and calcein 2 min; commercial protein; single-stranded DNA

“GCAGTTGATCCTTTGGATACCCTGG [mucin 1 aptamer]”: binds.

The exact form of at least one protein or probe is not confirmed.
